From paper PMC7819943, “Rice protein-binding microarrays: a tool to detect cis-acting elements near promoter regions in rice”
The list shows a part of the results.

Target: T1, OsSMF1 (Oryza sativa, UniProt Q6ZLB0 1-436)
T1 sequence: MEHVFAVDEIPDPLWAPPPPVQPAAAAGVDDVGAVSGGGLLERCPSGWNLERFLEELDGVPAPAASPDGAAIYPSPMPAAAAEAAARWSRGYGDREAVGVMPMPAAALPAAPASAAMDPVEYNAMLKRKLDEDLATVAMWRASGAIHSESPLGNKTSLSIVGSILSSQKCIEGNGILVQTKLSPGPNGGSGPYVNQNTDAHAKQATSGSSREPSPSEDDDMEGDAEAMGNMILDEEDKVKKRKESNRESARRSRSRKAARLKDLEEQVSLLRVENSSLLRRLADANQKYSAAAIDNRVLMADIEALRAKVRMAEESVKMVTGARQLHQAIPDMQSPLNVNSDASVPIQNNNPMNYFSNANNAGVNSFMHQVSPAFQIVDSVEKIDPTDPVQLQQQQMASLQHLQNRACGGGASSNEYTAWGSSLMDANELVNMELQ
Test: protein-binding microarray (RPBM); PBS, 2% BSA, 51.3 ng/ul salmon testes DNA, 50 uM zinc acetate, 200 nM TF, 25 C, 1 h; high values mean tight binding
Conditions: protein: recombinant; tags: N-terminal polyhistidine and DsRed monomer fusion (pET32a); chain copies: 2; label: CyDye5-dUTP incorporated in the synthesized complementary strand; 3' TTTTT single-stranded linker to array surface; dsDNA, one strand shown
Summary of the method: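 Ni–NTA purification followed expression in E. coli BL21-CodonPlus of transcription factors fused N-terminally to a polyhistidine tag and DsRed. At 200 nM in PBS with 2% BSA, salmon testes DNA and 50 µM zinc acetate, the protein was incubated for 1 h at 25 °C with a custom Agilent array that had been primer-extended with Cy5-dUTP and blocked with 2% BSA. After washing, the array was read on an Axon 4000B scanner. The binding signal is per-feature fluorescence intensity in arbitrary units.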

Sequence	binding signal
CCTGGGCGTCAACGAGCACGTGTCGCTGGGGCAGCTGCGCCGGAGTCACCTAGTGCAG	4920 fluorescence intensity (a.u.)
CAACCACGAAACCTCACCGACATGTGGGACCCATGTGGCACGGAGTCACCTAGTGCAG	4930 fluorescence intensity (a.u.)
AACCAAAATCCACGCGTACTCCTCTCGCAACAACTACCTCCGGAGTCACCTAGTGCAG	3170 fluorescence intensity (a.u.)
AATAGAATGGAAACAAGGTATTTAAAATGAATTTTGAGAACGGAGTCACCTAGTGCAG	33600 fluorescence intensity (a.u.)
CAGACTTCAGAACTTGATTGATTATAACTTAGTACTTCATCGGAGTCACCTAGTGCAG	23400 fluorescence intensity (a.u.)
GGAGAAAGGAACGGAGGGTGCGTACAACAGTCGGTACTTGCGGAGTCACCTAGTGCAG	3290 fluorescence intensity (a.u.)
CTGATCCTGTGATGTTGGCAACTCCACGTCGACAAAAGCACGGAGTCACCTAGTGCAG	10300 fluorescence intensity (a.u.)
GTACTAGAATATCGAATTTAGATATAGAGGATGTGTCACACGGAGTCACCTAGTGCAG	3270 fluorescence intensity (a.u.)
CTGACAAAGAGGGCCCACATGCAGCGTCACAACCCGGAGCCGGAGTCACCTAGTGCAG	5030 fluorescence intensity (a.u.)
CTGATCTGACGATGGGTGACACGACTTGGGCTTAAACAATCGGAGTCACCTAGTGCAG	3880 fluorescence intensity (a.u.)
TCGATAAATGTATAGGTGGACATGTAAAACGTTACCACTGCGGAGTCACCTAGTGCAG	3340 fluorescence intensity (a.u.)
GAATAGCAGCAACGGCTAGTAGTACTCGTTACTGTGTTTACGGAGTCACCTAGTGCAG	18900 fluorescence intensity (a.u.)
ATATATATATATATATATATATATATATATACACACACACCGGAGTCACCTAGTGCAG	15200 fluorescence intensity (a.u.)
TGACTCTTATACTTATCAGCCGAAATTTAAAATTTCATTGCGGAGTCACCTAGTGCAG	3730 fluorescence intensity (a.u.)
ATGTCAGGATGCCACGTCACACCCTTTCTTTCCCCTCCTCCGGAGTCACCTAGTGCAG	45200 fluorescence intensity (a.u.)
AGTATTGGGGAAATCTTGATGGGCGCACGCACGCACGGCCCGGAGTCACCTAGTGCAG	3430 fluorescence intensity (a.u.)
ACCGTCCTCGCCTTCTCCCGTGTTGCAGCCGTCATTGCTGCGGAGTCACCTAGTGCAG	3810 fluorescence intensity (a.u.)
TGTATATGTTTGTATGTCCTAATCATTGTTTTCGGATCCACGGAGTCACCTAGTGCAG	3750 fluorescence intensity (a.u.)
GTTTAAAAGATTCGTCTTGCAATTTACACGTAAACTATGTCGGAGTCACCTAGTGCAG	4830 fluorescence intensity (a.u.)
GCAGCAGCGTTGGTGGTGGTGGTGTGTCATCACCAACATTCGGAGTCACCTAGTGCAG	7760 fluorescence intensity (a.u.)
CGACCGACATATCTTCATAATTACCAAGTCATCATGCGACCGGAGTCACCTAGTGCAG	4520 fluorescence intensity (a.u.)

Sequence	binding signal
AACTCCACCCCTCTCTATTCTAGACCGGATCTAGATGCTCCGGAGTCACCTAGTGCAG	16000 fluorescence intensity (a.u.)
CGCCGCCCAACGTCAGCGCCACCTCATGCCACTGACGTCACGGAGTCACCTAGTGCAG	13800 fluorescence intensity (a.u.)
CATCACTAGGGCCATTTTCGGTGAAATGACTCTATGGGAGCGGAGTCACCTAGTGCAG	3470 fluorescence intensity (a.u.)
TCTGCATTTTGTACACATTACATATGATGATTATTTGGATCGGAGTCACCTAGTGCAG	3220 fluorescence intensity (a.u.)
TCCCGACGACCCGCCGGCCGCGCGCATGCGTCATCACCCACGGAGTCACCTAGTGCAG	18300 fluorescence intensity (a.u.)
CTGCTACTGCTCGCTAGCTGGCTGCTCCAACGGTGGATGGCGGAGTCACCTAGTGCAG	3260 fluorescence intensity (a.u.)
TGCATATATGCATCATCGCAACGGTGTATATTTGTGGTGTCGGAGTCACCTAGTGCAG	4630 fluorescence intensity (a.u.)
AATTCTATTGTATGAGTTGTCTGCACGTCATCGAAATATGCGGAGTCACCTAGTGCAG	10900 fluorescence intensity (a.u.)
CAACCCGGGAGGCGAGGCGACCGTCACCAAGGCCAGCCGTCGGAGTCACCTAGTGCAG	3320 fluorescence intensity (a.u.)
TGCGGCAAGGACTCCGCTGCCTGCTCACCACCATCACGCACGGAGTCACCTAGTGCAG	3190 fluorescence intensity (a.u.)
GCCCAAATATTGAGTTGGGCCCATAATTTTCGGCCCACATCGGAGTCACCTAGTGCAG	15600 fluorescence intensity (a.u.)
CCAGTGACTCGTCCGCCTCCACACATTACAGCTACCACGCCGGAGTCACCTAGTGCAG	4040 fluorescence intensity (a.u.)
ATCCGTACTCCCGTATATGTGGCAACATCTCCATCGTTTTCGGAGTCACCTAGTGCAG	4500 fluorescence intensity (a.u.)
CTTTGTTACCTAACTACAGTTGTTATATCGTGACACATTTCGGAGTCACCTAGTGCAG	5480 fluorescence intensity (a.u.)
TTGTGGCATCGCATGGCGTTGGCGTCACCACCCCGCTCTCCGGAGTCACCTAGTGCAG	4900 fluorescence intensity (a.u.)
GAGTCCGAGACCGACGCTGACACCGTCCTGCAGCAACCACCGGAGTCACCTAGTGCAG	3540 fluorescence intensity (a.u.)
TTATCTTCTCTCTCTTCCACATCATATAAAAGCTGATATGCGGAGTCACCTAGTGCAG	4270 fluorescence intensity (a.u.)
CGCGCCGTGGTGAGCGCGTGCGTGGCGTGTGGTGCAGGTGCGGAGTCACCTAGTGCAG	3440 fluorescence intensity (a.u.)
CCCTTAGTCTGCAGGTTCCAGAAATGAAGTTTCATGCAGACGGAGTCACCTAGTGCAG	8040 fluorescence intensity (a.u.)
CACACACCTCACCACACGCCACGTTGATGCCTCGATAGAACGGAGTCACCTAGTGCAG	3680 fluorescence intensity (a.u.)
GAATTCCTATAGCATAGAATGTACACAGGGTGTACCCATTCGGAGTCACCTAGTGCAG	3210 fluorescence intensity (a.u.)

Sequence	binding signal
CAATGGCCATGAAGAATGTTCGTTGCTGCCACGTTCTGGCCGGAGTCACCTAGTGCAG	4230 fluorescence intensity (a.u.)
TATATATATATATATATATATATAATGTTTCATCACCTGTCGGAGTCACCTAGTGCAG	3810 fluorescence intensity (a.u.)
ACGCGCGTTTTGTCAACACGTAGGCGAATATACTAGCCGGCGGAGTCACCTAGTGCAG	4880 fluorescence intensity (a.u.)
TGCACCCACGTGGCCACGTGTATGTAACGTTAGTGGTGACCGGAGTCACCTAGTGCAG	14900 fluorescence intensity (a.u.)
AAAACCTGACTTTGCATCATTAGACGATTTGTCCATTGAACGGAGTCACCTAGTGCAG	3160 fluorescence intensity (a.u.)
TTAATGGTGAGTGAGTTTGATGGCTACGTATGTGTGCTATCGGAGTCACCTAGTGCAG	3170 fluorescence intensity (a.u.)
AAACACTCGATGACATGTGGGTCCCACCTTTTGATTTAATCGGAGTCACCTAGTGCAG	3230 fluorescence intensity (a.u.)
GTTCATTATTGCCGTTTACTAATACCATGTCCACACGGCCCGGAGTCACCTAGTGCAG	10700 fluorescence intensity (a.u.)
GGGCCCGCAATTCAATCGATTTGTTGGTCAGCCCATACTGCGGAGTCACCTAGTGCAG	3210 fluorescence intensity (a.u.)
CCGACAACACCGAGATCTTCGAGGATGGTGGACGTCACCCCGGAGTCACCTAGTGCAG	3570 fluorescence intensity (a.u.)
TGCTGCGAAAGATGCACATCTTTGCATCACCAAGCAGCTCCGGAGTCACCTAGTGCAG	3500 fluorescence intensity (a.u.)
GAGAAGATGTATTAACATGTGATATATCGCTCCACAAACACGGAGTCACCTAGTGCAG	3320 fluorescence intensity (a.u.)
TAGAAAACGCAACAACTAGCGCACCACGATACACGTGCATCGGAGTCACCTAGTGCAG	3860 fluorescence intensity (a.u.)
TTGTTACTCCATATCTTTTGCACAGTCATACTGCAAGAATCGGAGTCACCTAGTGCAG	5350 fluorescence intensity (a.u.)
CTAGTATTAGCACCGAATAATGTGTCACTAATTAGAGTAGCGGAGTCACCTAGTGCAG	4640 fluorescence intensity (a.u.)
CGGCCACGCATGGTCGCCTGAGTCATCGTCCTTCCACTCTCGGAGTCACCTAGTGCAG	9340 fluorescence intensity (a.u.)
AAGTTGCTTTAAAATATCAAATATATCCATTTGTTAAATTCGGAGTCACCTAGTGCAG	32100 fluorescence intensity (a.u.)
GTATTGCACAAGTTAATGAATAAATAAGAAGAGTCTTACCCGGAGTCACCTAGTGCAG	28100 fluorescence intensity (a.u.)
TAGCTAGGCCACGCGCACGCCACGACGGCCCGCACATATGCGGAGTCACCTAGTGCAG	3880 fluorescence intensity (a.u.)
TCTACCTGGCCCCACATGTCATCCACTCGTGCTACGCAGCCGGAGTCACCTAGTGCAG	3440 fluorescence intensity (a.u.)
CCGATACCGTATCGCTCGCGTATCCCACGTATCGCCGTATCGGAGTCACCTAGTGCAG	4740 fluorescence intensity (a.u.)

Sequence	binding signal
CCCAAAGTCAACCACATACGTGCTGTTGTGTAGTCACATTCGGAGTCACCTAGTGCAG	3580 fluorescence intensity (a.u.)
TCTCACATGGTCGTATGTAATGCGTAAATTTCATAAAGAACGGAGTCACCTAGTGCAG	19400 fluorescence intensity (a.u.)
GGTCGCTGTCGTTGGCGGGTGCGGGGAGGTGGCGGTTACGCGGAGTCACCTAGTGCAG	4820 fluorescence intensity (a.u.)
CATGTCAAAGTGCCACGCCAGCGAAACTGCGTTCTAAAACCGGAGTCACCTAGTGCAG	7780 fluorescence intensity (a.u.)
ATCGACGATGAAGATGATGACGAGGATATCGTATATATGGCGGAGTCACCTAGTGCAG	4190 fluorescence intensity (a.u.)
CCCAACCCAGAGCGGTTTTGTCCAACGTGGCACACGCGTGCGGAGTCACCTAGTGCAG	19600 fluorescence intensity (a.u.)
GTCTCGCTCGCGTCGTCGTGGTGAGGGGTGACGCGAGTCACGGAGTCACCTAGTGCAG	3600 fluorescence intensity (a.u.)
CTCAAAGCATTATAAAACTTGCTGGCTTTGTCCCCTTCATCGGAGTCACCTAGTGCAG	3250 fluorescence intensity (a.u.)
CCCTATTAATGCAACAGCTTCCTGTTTCAGTCTGTACTCTCGGAGTCACCTAGTGCAG	3680 fluorescence intensity (a.u.)
CTATTAAACTTGCTCAAAGAGATCAGAGGGGTGGCAATTGCGGAGTCACCTAGTGCAG	3460 fluorescence intensity (a.u.)
AATGGTAAAATCCCACGTCATCGTAACCAAGGTGCGACCCCGGAGTCACCTAGTGCAG	17900 fluorescence intensity (a.u.)
GTGTTTTGTTCTGGTCACAAGTTAGTCATGCCAAACTTTCCGGAGTCACCTAGTGCAG	4230 fluorescence intensity (a.u.)
AGATTGGAGTAGTTAACCTTGGCAAGCTCACCCGTCAACTCGGAGTCACCTAGTGCAG	3320 fluorescence intensity (a.u.)
TGGATGGGATGTAGTACTACTGTGGCTTCGCCACCGGATCCGGAGTCACCTAGTGCAG	3260 fluorescence intensity (a.u.)
GCGTCGGACGGTGGCTTGCCGGCTGCAATGATGTGGTGCCCGGAGTCACCTAGTGCAG	3900 fluorescence intensity (a.u.)
CTCTCAACCGGGCCCTGCTCCACCGCAGCGCCACCAACAACGGAGTCACCTAGTGCAG	22600 fluorescence intensity (a.u.)
CACCTCGGTACGTGTTCGACATGTTACACATATTTGATCTCGGAGTCACCTAGTGCAG	5460 fluorescence intensity (a.u.)
CTCCGGTGCACGTAGGTCAATTAGGCGTACAGTCACCGGTCGGAGTCACCTAGTGCAG	8510 fluorescence intensity (a.u.)
CACCCTTCTCCGACGAGAACCCCAACCGCCGCAACCCGGACGGAGTCACCTAGTGCAG	3200 fluorescence intensity (a.u.)
AATCTAAAGACAGTTGAACACAACGCACTTGTCCCTCACACGGAGTCACCTAGTGCAG	22600 fluorescence intensity (a.u.)
CATCCCACAAAGTACACAAAACTCAGAGCCCTTCCATCCTCGGAGTCACCTAGTGCAG	21000 fluorescence intensity (a.u.)
